Experimental data: PubChem BioAssay AID652243 (Drosophila RNAi Screening Center, 2013)
Aim: 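Knock-downs that decrease or increase androgen receptor reporter signal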 (primary screen). Cell system: Drosophila S2R+ cells. Reagent: long dsRNA against Drosophila genes. Time to read-out: 72 h (48 h, then 24 h hormone). Treatment: synthetic androgen R1881 at 10 nM for 24 h. Read-out: 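Firefly light from an androgen-responsive reporter and Renilla control light per well, raw and unnormalised, for each of two replicates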. Reading the numbers: firefly reporter light: higher = more light from androgen-responsive reporter; Renilla control light: higher = more constitutive control signal (cell number, transfection). Active means: 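Across duplicate plates, a knock-down whose log firefly/Renilla ratio shifted a set fold down or up from the GFP/LacZ control mean was a hit; the downward cut appears as both 1.5 and 3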. Calls: active = hit: reporter lowered or raised; inactive = no hit.
In all, the deposit lists about 24,000 reagents; shown is an unselected part of those that have a named target and a result. Over the whole deposit, 246 (1%) were called active. 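Plates not normalised; calls are printed but the firefly/Renilla ratio behind them is not deposited; fold cut for lowering reported inconsistently.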 Raw values are not corrected between plates. The numbers tell different reagents against one gene apart. A plus sign joins genes that one reagent is predicted to hit. No sequences are given here. The record does not give: the amount of reagent.

no.	target gene	reagent no.	firefly reporter light, replicate 1	firefly reporter light, replicate 2	Renilla control light, replicate 1	Renilla control light, replicate 2	outcome
1	CG42272	1	2.35e5	1.88e5	6.49e5	5.17e5	inactive
2	CG42272	2	10322	28186	30108	42420	inactive
3	CG42272	3	6.98e5	6.43e5	6.65e5	7.19e5	inactive
4	CG42272	4	1.97e5	1.93e5	3.87e5	7.77e5	inactive
5	DptB	1	1.21e5	1.48e5	2.32e6	2.94e6	inactive
6	side-VI	1	1.15e5	1.16e5	2.34e6	2.17e6	inactive
7	side-VI	2	6.84e5	8.71e5	1.36e6	1.67e6	inactive
8	side-VI	3	4.15e5	3.59e5	1.51e6	1.45e6	inactive
9	CG32391	1	89379	1.19e5	3.65e5	4.39e5	inactive
10	RhoGEF2	1	6.16e5	4.02e5	5.94e5	5.18e5	inactive
11	RhoGEF2	2	4.46e5	3.19e5	1.28e6	1.28e6	inactive
12	CG9512	1	1.09e5	52393	5.14e5	5.21e5	inactive
13	CG15196	1	7.09e5	5.67e5	3.28e6	3.93e6	inactive
14	CG15196	2	5.64e5	6.13e5	7.48e5	6.49e5	inactive
15	mRpS2	1	79913	80103	6.09e5	9.24e5	inactive
16	CG12241	1	66311	69204	4.90e5	5.39e5	inactive
17	CG12241	2	2.75e5	2.60e5	6.26e5	7.10e5	inactive
18	BomS5	1	8.32e5	7.64e5	2.46e6	2.03e6	inactive
19	CG31788	1	1.90e5	1.80e5	6.20e5	6.60e5	inactive
20	ema	1	2.87e5	2.31e5	2.82e6	2.53e6	inactive
21	CG15345 (retired record)	1	6.00e5	8.12e5	1.88e6	1.67e6	inactive
22	CG15345 (retired record)	2	2.93e5	2.06e5	1.04e6	6.31e5	inactive
23	CG12134	1	3.73e5	2.12e5	2.96e6	2.62e6	inactive
24	CG12134	2	9.46e5	8.81e5	1.16e6	1.14e6	inactive
25	CG31793	1	1.11e5	78792	9.45e5	1.08e6	inactive
26	CG31793	2	5.94e5	5.45e5	6.14e5	7.21e5	inactive
27	AstC-R1	1	2.73e5	3.05e5	2.29e6	2.97e6	inactive
28	AstC-R1	2	2.62e5	3.65e5	6.17e5	6.17e5	inactive
29	agt	1	1.66e5	1.31e5	3.20e6	2.60e6	inactive
30	RtcB	1	2.06e5	1.88e5	2.63e6	2.42e6	inactive
31	CG34138	1	9.24e5	8.59e5	2.19e6	2.38e6	inactive
32	CG10116	1	1.07e6	8.34e5	1.19e6	1.53e6	inactive
33	mRpL40	1	2.08e5	1.92e5	2.60e6	3.17e6	active
34	mRpL40	2	2.82e5	2.51e5	6.86e5	7.54e5	inactive
35	Mps1	1	74157	82235	5.21e5	8.86e5	inactive
36	Mps1	2					inactive
37	Mps1	3					inactive
38	M6	1	2.69e5	2.09e5	2.35e6	2.25e6	inactive
39	Pde9	1	4.36e5	4.71e5	4.05e6	3.64e6	inactive
40	Pde9	2	7.16e5	6.93e5	3.95e6	3.69e6	inactive
41	Pde9	3	5.78e5	3.54e5	4.26e6	3.41e6	inactive
42	Pde9	4	5.34e5	4.45e5	3.24e6	3.83e6	inactive
43	Pde9	5	5.66e5	9.14e5	1.08e6	1.15e6	inactive
44	CG31798	1	3.07e5	3.90e5	7.80e5	8.59e5	inactive
45	CG31798	2	6.26e5	3.34e5	1.77e6	7.13e5	inactive
46	ARY (retired record)	1	9.22e5	7.54e5	2.04e6	1.35e6	inactive
47	CG2121	1	8.98e5	8.25e5	1.47e6	1.56e6	inactive
48	CG2121	2	3.77e5	3.26e5	1.93e6	1.72e6	inactive
49	Ca-alpha1D	1	9.58e5	9.82e5	1.81e6	1.93e6	inactive
50	Roc1b + Cdc5	1	74049	77998	1.59e6	1.37e6	inactive
51	Roc1b + Cdc5	2	5.24e5	3.79e5	1.01e6	6.25e5	inactive
52	CG9682	1	90870	61845	6.24e5	4.07e5	inactive
53	CG9682	2	5.60e5	7.60e5	1.04e6	9.85e5	inactive
54	Ptth	1	1.18e5	99312	6.30e5	7.78e5	inactive
55	RapGAP1	1	3.42e5	3.38e5	1.56e6	1.79e6	inactive
56	RapGAP1	2	2.29e5	2.12e5	1.41e6	1.38e6	inactive
57	RapGAP1	3	2.03e5	2.20e5	1.76e6	1.59e6	inactive
58	RapGAP1	4	6.61e5	7.37e5	1.98e6	2.15e6	inactive
59	RapGAP1	5	3.72e5	4.92e5	1.53e6	1.71e6	inactive
60	RapGAP1	6	4.89e5	6.51e5	9.03e5	9.03e5	inactive
